Molecules are shown by their SMILES. Whole data set: some 1,000 compounds, median “thermal shift dTm” near 0.19, cut for the highest 2% near 1.7. This is one part of the list. Active and inactive are the calls of the source.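 How the source made its calls: active means mean rise in melting temperature of at least 1 degC over same-plate control wells; inactive means below that, where a call was filed.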

By UniProt entry, the sequences of proteins in these tests, tags left out. Where a name states a change or a piece, a line headed by the entry shows the natural chain unless it says otherwise.
UniProt O00391: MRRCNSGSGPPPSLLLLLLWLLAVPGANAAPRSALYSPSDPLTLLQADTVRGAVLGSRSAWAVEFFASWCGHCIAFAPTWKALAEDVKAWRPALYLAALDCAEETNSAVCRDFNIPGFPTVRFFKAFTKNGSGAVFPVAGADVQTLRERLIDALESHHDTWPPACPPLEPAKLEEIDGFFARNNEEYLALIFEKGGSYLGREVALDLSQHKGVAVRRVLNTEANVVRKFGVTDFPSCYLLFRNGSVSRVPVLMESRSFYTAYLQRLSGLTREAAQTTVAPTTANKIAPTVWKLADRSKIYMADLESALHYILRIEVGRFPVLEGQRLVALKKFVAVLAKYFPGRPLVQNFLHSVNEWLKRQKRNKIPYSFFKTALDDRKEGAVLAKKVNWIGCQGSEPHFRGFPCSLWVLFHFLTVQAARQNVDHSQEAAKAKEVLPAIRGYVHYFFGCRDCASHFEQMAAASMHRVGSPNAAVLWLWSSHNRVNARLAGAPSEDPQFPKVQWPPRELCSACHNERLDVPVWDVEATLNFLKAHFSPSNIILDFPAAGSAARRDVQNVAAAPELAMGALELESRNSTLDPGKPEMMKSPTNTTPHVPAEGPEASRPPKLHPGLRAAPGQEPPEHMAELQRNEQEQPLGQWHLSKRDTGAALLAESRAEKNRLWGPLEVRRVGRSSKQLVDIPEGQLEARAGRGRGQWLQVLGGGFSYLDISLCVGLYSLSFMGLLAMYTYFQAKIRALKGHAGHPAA

The target in this test is Sulfhydryl oxidase 1 (Homo sapiens) (UniProt O00391). Put plainly: ligand-induced melting shift of human QSOX1 – biophysical, protein thermal shift, single concentration, QSOX1 inhibitor project, confirmation (AID 1347422).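 Further: dTm is compound Tm minus mean Tm of DMSO-only wells on that plate.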 To be noted: recombinant hQSOX1 thermal shift, Sypro Orange, at 25 µM, stronger effect = higher value.
Consider `Cc1ccc(NC(=O)Nc2ccccc2F)cc1C`, for which the thermal shift dTm was 0.43 °C.
`O=C(Cc1ccc(Br)cc1)Nc1cccc(-c2nc3ccccc3s2)c1`: the thermal shift dTm is 0.11 °C.
Regarding `COc1ccc(-c2noc(CSc3nc4ccc(C)cc4[nH]3)n2)cc1`, the thermal shift dTm was 0.01 °C.
Take `c1ccc(Nc2ccc(N3CCCCC3)nn2)cc1`: the thermal shift dTm stood at 0.65 °C.
As for `O=C(OCc1nnc(-c2ccccc2)o1)c1cccc2ccccc12`, the thermal shift dTm is 0.02 °C.
On to `NC1=NC(=O)/C(=C\c2ccc(-c3ccc(C(=O)O)c(Cl)c3)o2)S1`, for which the thermal shift dTm worked out at 0.89 °C.
Turning to `CCCc1cc(=O)[nH]c(N2CCN(Cc3ccc4c(c3)OCO4)CC2)n1`, the thermal shift dTm was determined as 0.02 °C.
On to `O=C(/C=C/c1ccco1)NCc1cccc(CNC(=O)/C=C/c2ccco2)c1`, for which the thermal shift dTm is active: 1.04 °C.
Next, `COc1ccc(NC(=O)CS(=O)(=O)c2ccc3ccccc3c2)cc1`: 0.21 °C; `C=CCN(Cc1nc(-c2ccc(Cl)cc2)no1)C(=O)Nc1ccc(C)cc1`: 0.27 °C.
Turning to `Cc1ccc(CN2CCC(C(=O)Nc3cccc(-c4ccn[nH]4)c3)CC2)o1`, the thermal shift dTm came out at 0.19 °C.
In the case of `O=C(Nc1ccc(Cl)c(Cl)c1)NC12CC3CC(CC(C3)C1)C2`, the thermal shift dTm is 0.16 °C.
Next, `CC(C)C(=O)Nc1ccc(NC(=O)/C=C/c2ccccc2)cc1`: 0.12 °C; `CSc1ccc(-c2cc(C(N)=O)on2)cc1`: 0.14 °C; `COc1cc(/C=N/O)cc(Br)c1OCc1ccccc1F`: 0.16 °C.
With `Fc1ccc(COc2ccc(CNc3ccccc3)cc2Cl)cc1`, the thermal shift dTm is 0.63 °C.
Consider `O=C(Nc1nc(-c2ccccc2)ns1)N1CCOc2ccc(Cl)cc2C1`, for which the thermal shift dTm was found to be 0.23 °C.
Next, `FC(F)(F)c1cccc(N2CCN(Cc3ccc(Br)s3)CC2)c1`: inactive: -0.13 °C.
For `O=C(O)Cn1c2ccc(Br)cc2c2nc3ccccc3nc21`, the thermal shift dTm turned out to be 0.44 °C.
Next, `Cc1nn(-c2ccccc2)cc1-c1nc2c(cnn2C2CCCC2)[nH]1`: 0.52 °C; `O=C(/C=C/c1ccccc1Cl)NCCc1nc2ccccc2[nH]1`: 0.84 °C; `CC(=O)Nc1ccc(NC(=O)c2ccccc2NC(=O)c2ccc(C)cc2)cc1`: 0.1 °C.
In the case of `CC(=O)Nc1ccc(S(=O)(=O)Nc2ccc(OC3CCCC3)cc2)cc1`, the thermal shift dTm is 0.41 °C.
Next, `NC(=O)c1ccc(OCc2cccc(F)c2)cc1`: 0.19 °C; `CCCN(CC1CC1)C(=O)c1cc(COc2ccc(OC)cc2Cl)on1`: 0.09 °C.
Next, `CSC1=N/C(=C\c2ccc(-c3ccc(Cl)cc3)o2)C(=O)S1`: 0.29 °C; `Cc1ccc(C(=O)Nc2sc(Cc3ccccc3)cc2C(N)=O)o1`: 0.37 °C; `OCc1ccc(OCc2cccc3ccccc23)c(Br)c1`: 0.11 °C.
Next, `CCOc1cc(/C=C2/N=C(c3ccco3)OC2=O)ccc1OC(=O)c1ccc(OC)cc1`: 0.8 °C; `Cc1ccc2nc(-c3ccc4c(c3)OCO4)cc(C(=O)NC3=NCCS3)c2c1`: 0.16 °C; `Cc1ccc(NC(=O)COc2ccccc2)c(NC(=O)c2ccc(C)c(C)c2)c1`: 0.24 °C.
In the case of `CN(Cc1ccccn1)c1nccc(-c2cnn(-c3cccc(Cl)c3)c2)n1`, the thermal shift dTm is 0.1 °C.
Regarding `CC(=O)Nc1ccc(NC(=O)CCc2ccc(C)s2)cc1`, the thermal shift dTm turned out to be 0.21 °C.
For the compound `Cc1ccc(S(=O)(=O)NCC(Nc2ccccc2C)c2ccccc2)cc1` (centres undefined), the thermal shift dTm amounted to 0.54 °C.
Turning to `CC1CCc2c(c3ccccc3n2C(=O)CSc2n[nH]c(N)n2)C1` (centres undefined), the thermal shift dTm was 0.23 °C.
Next, `O=C(Nc1ccc2c(c1)CCC2)Nc1ccc(F)cc1F`: 0.24 °C.
In the case of `CC(=O)Oc1ccc2cc(-c3ccc(Cl)cc3)c(=O)oc2c1`, the thermal shift dTm was found to be 0.11 °C.
Next, `O=C(Nc1ccc2c(c1)OCCO2)c1ccc(Cl)s1`: inactive: -0.1 °C.
Next, `O=C(CN1C(=O)C2C3C=CC(C3)C2C1=O)Nc1ccc(Br)cc1` (centres undefined): inactive: -0.12 °C; `COc1cccc(-c2nc3c(cnn3Cc3cccc(Cl)c3)[nH]2)c1O`: inactive: 0 °C; `O=C1OC(c2ccccc2)OC(=O)C1=Cc1ccc(-c2cccc(Br)c2)o1` (centres undefined): 0.47 °C.
With `O=C(Nc1ccc(-c2noc(/C=C/c3ccccc3)n2)cc1)c1ccccc1F`, the thermal shift dTm is inactive: -0.18 °C.
For `Cc1noc(C)c1C(=O)Nc1ccc(S(=O)(=O)N2CCc3ccccc3C2)cc1`, the thermal shift dTm stood at 0.1 °C.
`O=c1[nH]c(=O)n(Cc2ccco2)c(O)c1/C=C1\C=Nc2ccccc21`: the thermal shift dTm worked out at 0.05 °C.
As to `CCOCN(C(=O)Cn1c(COc2ccc(OC)cc2)nc2ccccc21)c1c(C)cccc1CC`, the thermal shift dTm was 0.05 °C.
Take `NS(=O)(=O)c1ccc(NC(=O)c2ccc(F)c(F)c2)cc1`: the thermal shift dTm turned out to be 0.09 °C.
As for `N/C(=N\c1nc(-c2cccs2)cc(C(F)(F)F)n1)Nc1ccc2c(c1)OCCO2`, the thermal shift dTm is 0.35 °C.
Turning to `Cc1ccc(OCCCn2cnc3ccccc3c2=O)c(I)c1`, the thermal shift dTm came out at 0.11 °C.
Next, `CCc1ccc(NC(=O)Nc2cccc(NC(C)=O)c2)cc1`: inactive: -0.42 °C; `Cc1cccc(NC(=O)Nc2ccc(-c3cn4cccnc4n3)cc2)c1`: 0.56 °C.
On to `O=C(Nc1cccc(-c2cc3ccccc3oc2=O)c1)c1ccccc1`, for which the thermal shift dTm amounted to 0.19 °C.
In the case of `CCOc1ccc(Nc2nc(-c3ccc(Cl)cc3)nc3ccccc23)cc1`, the thermal shift dTm is inactive: -0.13 °C.
`Cc1ccc2c(c1)CN(Cc1cccc(O)c1)CC(c1ccsc1)O2` (centres undefined): the thermal shift dTm stood at 0.56 °C.
Next, `Cc1ccc(S(=O)(=O)Nc2ccc(C(=O)Nc3ccccc3F)cc2)cc1`: 0.05 °C; `O=C(COc1ccc(Cl)cc1)NCCSCc1ccc(Cl)c(Cl)c1`: 0.11 °C; `COc1ccccc1NC(=S)c1nc2ccccc2s1`: 0.11 °C.
As to `O=C(CN1C(=O)c2ccccc2C1=O)Nc1ccc2ccccc2c1`, the thermal shift dTm was determined as 0.12 °C.
As to `CCN(CC)C(=O)c1cccc(NC(=O)Nc2ccc(Cl)cc2)c1`, the thermal shift dTm is 0.23 °C.
For the compound `C=CCc1ccc(OCCCCOc2cccc3cccnc23)c(OC)c1`, the thermal shift dTm was inactive: -0.09 °C.
For the compound `COc1ccc(CNC(=S)NC(C)C23CC4CC(CC(C4)C2)C3)cc1` (centres undefined), the thermal shift dTm was 0.68 °C.
Next, `COc1ccc(Cl)cc1S(=O)(=O)Nc1ccc(C(N)=O)cc1`: 0.32 °C; `Cc1ccc(NC(=O)CC2COc3ccccc3O2)cc1Cl` (centres undefined): 0.35 °C.
Turning to `COc1ccc2c(CCNC(=O)c3ccccc3Br)c[nH]c2c1`, the thermal shift dTm was found to be 0.02 °C.
Take `CC(=O)Nc1ccc2nc(NC(=O)COc3cc(C)ccc3C(C)C)sc2c1`: the thermal shift dTm is inactive: -0.04 °C.
As to `O=C(COc1ccccc1)Nc1cccc(-c2cnc3ccccc3n2)c1`, the thermal shift dTm was found to be 0.15 °C.
As to `CCC(C)c1ccc(OCCCOc2ccccc2/C=C2\SC(N)=NC2=O)cc1` (centres undefined), the thermal shift dTm turned out to be 0.24 °C.
Regarding `COc1cc(-n2nnc(C(=O)NCCc3ccccc3)c2N)ccc1Cl`, the thermal shift dTm amounted to 0.27 °C.
Regarding `CC1CN=C(N(C(=O)Nc2ccccc2)c2ccc(F)cc2F)S1` (centres undefined), the thermal shift dTm is 0.65 °C.
As for `Cc1ccc(-c2csc(Nc3ccccn3)n2)cc1C`, the thermal shift dTm was determined as 0.01 °C.
With `CCOC(=O)C1=C(C)N=C2SCC(=O)N2C1c1ccc(Br)cc1` (centres undefined), the thermal shift dTm was inactive: -0.09 °C.
Consider `Cc1ccnc(Nc2nc(-c3ccc(Cl)cc3)cs2)c1`, for which the thermal shift dTm was inactive: -0.13 °C.
On to `CCOc1ccccc1NC(=O)CN(c1cc(Cl)ccc1Cl)S(C)(=O)=O`, for which the thermal shift dTm was inactive: -8.23 °C.
For the compound `ONc1nc(-c2ccccc2)cc(-c2ccc(F)cc2)n1`, the thermal shift dTm turned out to be 0.32 °C.
With `CCN1CCOC(CC(=O)Nc2ccc(Cl)c(C(F)(F)F)c2)C1=O` (centres undefined), the thermal shift dTm was active: 1.02 °C.
On to `COc1ccc(NC(=O)Nc2cccc(Cn3cc(Cl)cn3)c2)cc1`, for which the thermal shift dTm is active: 2.14 °C.
With `COC(=O)c1cccc(NC(=O)c2ccc(Cl)s2)c1`, the thermal shift dTm stood at 0.04 °C.
Consider `CC(=O)Nc1ccc(OC(=O)c2cccc(Br)c2)cc1`, for which the thermal shift dTm was inactive: -0.04 °C.
As to `N#Cc1cnc(SCC(=O)Nc2ccc(Cl)c(Br)c2)nc1N`, the thermal shift dTm was 0.32 °C.
For `CC1Oc2ccc(-c3csc(NC(=O)COc4ccc(Cl)cc4)n3)cc2NC1=O` (centres undefined), the thermal shift dTm is inactive: -0.1 °C.
Turning to `O=C(Nc1ccc(Cl)cc1)Nc1cccc(C(=O)NCc2ccco2)c1`, the thermal shift dTm is active: 3.11 °C.
Regarding `OCc1ccc(OCc2ccc(Cl)cc2)c(Br)c1`, the thermal shift dTm came out at 0.16 °C.
For `CCSC1=N/C(=C\c2ccc(-c3ccc(Br)cc3)o2)C(=O)S1`, the thermal shift dTm is 0.25 °C.
For the compound `CCC(=O)c1ccc(-c2cccc(-c3ccn[nH]3)c2)s1`, the thermal shift dTm turned out to be 0.47 °C.
Consider `COc1ccc(OC)c(NC(=O)C(=S)NCc2ccco2)c1`, for which the thermal shift dTm was 0.21 °C.
Next, `O=C(Nc1nc2ccc(S(=O)(=O)N3CCCC3)cc2s1)c1cccs1`: 0.29 °C; `CCOc1ccc(NC(=O)Nc2cc(F)ccc2C)cc1`: active: 2.14 °C; `CCOc1ccc(C(=O)Nc2cc(C)ccn2)cc1[N+](=O)[O-]`: 0.43 °C.
Turning to `CCCOCC1CC2(CC(C)(c3csc(Nc4ccccc4)n3)OC2=O)C(=O)O1` (centres undefined), the thermal shift dTm turned out to be 0.1 °C.
Next, `COc1ccc(CCC(=O)Nc2ccc(N3CCOCC3)c(Cl)c2)cc1`: 0.85 °C; `COc1cccc(NC(=O)Nc2cccc3ccccc23)c1`: 0.01 °C; `COc1cccc(-c2noc(COc3ccccc3Cl)n2)c1`: 0.18 °C.
Turning to `CSc1cccc(NC(=O)Nc2ccc(Cn3cncn3)cc2)c1`, the thermal shift dTm was active: 1.3 °C.
Take `CC(C)c1ccc(-c2csc(Nc3ccc(O)c(C(=O)O)c3)n2)cc1`: the thermal shift dTm came to 0.81 °C.
`COC(=O)Cc1cc(=O)n(-c2ccc(OC(F)(F)F)cc2)[nH]1`: the thermal shift dTm was determined as 0.99 °C.
Next, `COC(=O)C1=C(C)N(c2ccc(Cl)cc2)C(=O)/C1=C\c1ccco1`: 0.01 °C; `CCc1ccc(NC(=O)Nc2ccc(Br)cn2)cc1`: 0.09 °C; `Cc1ccc(-n2[nH]c(CSc3nnnn3-c3ccccc3)cc2=O)cc1`: 0.43 °C.
Consider `Cc1ccc(C(=O)Nc2nc3ccccc3s2)s1`, for which the thermal shift dTm was found to be 0.93 °C.
As to `O=C(Nc1cccc(Br)c1)C1C2C3CCC(C3)C12` (centres undefined), the thermal shift dTm was found to be 0.21 °C.
For `CCOc1cc(Br)cc(/C=C/c2ccc3cccc(O)c3n2)c1O`, the thermal shift dTm is 0.16 °C.
Regarding `O=C(Nc1ccc(-c2csc(-c3ccccc3)n2)cc1)C1CCCCC1`, the thermal shift dTm is 0.11 °C.
With `Cc1noc(NS(=O)(=O)c2ccc(NC(=O)Nc3ccc(Cl)cc3)cc2)c1C`, the thermal shift dTm was 0.7 °C.
Consider `CCOc1ccc(/C=C/C(=O)Nc2cc(OC)ccc2OC)cc1`, for which the thermal shift dTm came out at 0.11 °C.
As for `c1ccc(COc2ccc(CNc3ccc(CNc4ncn[nH]4)cc3)cc2)cc1`, the thermal shift dTm stood at 0.3 °C.
For the compound `CCOc1ccc(-c2cn(S(=O)(=O)c3ccc(C4CCCCC4)cc3)nc2N)cc1`, the thermal shift dTm is 0.21 °C.
Next, `COc1ccc(-n2nnc(-c3nc4ccccc4s3)c2N)cc1`: 0.2 °C; `Cc1ccc(S(=O)(=O)c2nc(S(C)(=O)=O)sc2NCc2ccccc2)cc1`: inactive: -7.05 °C; `O=C(Nc1cccc(-c2noc(COc3ccccc3)n2)c1)c1cccs1`: 0.1 °C.
For `Cc1ccccc1-c1noc(CNC(=O)c2ccc(C(C)(C)C)cc2)n1`, the thermal shift dTm came out at 0.2 °C.

The values above are taken from PubChem BioAssay AID1347422 (Sanford-Burnham Center for Chemical Genomics, 2020).
